PubChem BioAssay AID1259308, NCATS | 2017
Test: 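Knock-downs that increase output of a recombinant reporter protein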 (primary screen). Cells: human HEK293 embryonic kidney cells stably expressing firefly luciferase (HEK-CMV-Luc2-Hygro). Reagents: single siRNA against human genes, 0.8 pmol siRNA per well. Timing: 72 h. Measured: 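Reporter luminescence and viable-cell signal on separate replicate plates, given as percent of non-targeting control and median/MAD z-scores, plus per-cell luciferase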. Direction: total luciferase, z-score and total luciferase, % of control: higher = more reporter protein produced; luciferase per cell, z-score: higher = more reporter output per viable cell. Rule for the call: 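Active when the median/MAD z-score for overall luciferase is greater than 3; a gene was taken forward for validation with new siRNAs if at least two of its three siRNAs passed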. Calls: active = raised luciferase; inactive = no rise.
Here is one part, drawn at random, of about 59,000 reagents tested. Over the whole deposit, about 1,510 (2.6%) were called active. 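Calls use total luciferase alone and ignore viability, so some active siRNAs may act by altering cell number.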 The numbers tell different reagents against one gene apart. Further read-outs or replicates are left out here.

Gene	reagent	total luciferase, z-score	total luciferase, % of control	luciferase per cell, z-score	call
ITGAV (GeneID 3685)	1	-0.248	76.9	-0.839	inactive
ITGAV (GeneID 3685)	2	2.16	125	1.81	inactive
ITGAV (GeneID 3685)	3	-0.0646	80.6	-0.168	inactive
ZNF57 (GeneID 126295)	1	0.432	90.5	0.66	inactive
ZNF57 (GeneID 126295)	2	-0.711	67.7	-0.82	inactive
ZNF57 (GeneID 126295)	3	-0.225	77.4	0.0659	inactive
PRR15 (GeneID 222171)	1	3.34	148	1.52	active
PRR15 (GeneID 222171)	2	-0.15	78.9	-0.675	inactive
PRR15 (GeneID 222171)	3	3.46	151	1.88	active
TSNARE1 (GeneID 203062)	1	1.01	102	1.06	inactive
TSNARE1 (GeneID 203062)	2	0.999	102	1.01	inactive
TSNARE1 (GeneID 203062)	3	-0.817	65.6	-0.272	inactive
PSMG2 (GeneID 56984)	1	0.0437	82.8	0.287	inactive
PSMG2 (GeneID 56984)	2	-0.264	76.6	-0.29	inactive
PSMG2 (GeneID 56984)	3	0.743	96.7	-0.322	inactive
NAV1 (GeneID 89796)	1	-0.331	75.3	-0.485	inactive
NAV1 (GeneID 89796)	2	-0.267	76.6	-0.6	inactive
NAV1 (GeneID 89796)	3	-1.72	47.8	-1.13	inactive
CSAD (GeneID 51380)	1	-0.142	79.1	-0.674	inactive
CSAD (GeneID 51380)	2	0.0707	83.3	0.0341	inactive
CSAD (GeneID 51380)	3	-0.884	64.3	-1.06	inactive
JDP2 (GeneID 122953)	1	0.218	86.2	1.3	inactive
JDP2 (GeneID 122953)	2	-0.00867	81.7	-0.401	inactive
JDP2 (GeneID 122953)	3	-0.567	70.6	0.174	inactive
OR6C75 (GeneID 390323)	1	2.08	123	1.85	inactive
OR6C75 (GeneID 390323)	2	-0.337	75.2	-0.272	inactive
OR6C75 (GeneID 390323)	3	-0.686	68.2	-0.45	inactive

The list goes on (10 carried over from the part before).
Gene	reagent	total luciferase, z-score	total luciferase, % of control	luciferase per cell, z-score	call
NAV1 (GeneID 89796)	3	-1.72	47.8	-1.13	inactive
CSAD (GeneID 51380)	1	-0.142	79.1	-0.674	inactive
CSAD (GeneID 51380)	2	0.0707	83.3	0.0341	inactive
CSAD (GeneID 51380)	3	-0.884	64.3	-1.06	inactive
JDP2 (GeneID 122953)	1	0.218	86.2	1.3	inactive
JDP2 (GeneID 122953)	2	-0.00867	81.7	-0.401	inactive
JDP2 (GeneID 122953)	3	-0.567	70.6	0.174	inactive
OR6C75 (GeneID 390323)	1	2.08	123	1.85	inactive
OR6C75 (GeneID 390323)	2	-0.337	75.2	-0.272	inactive
OR6C75 (GeneID 390323)	3	-0.686	68.2	-0.45	inactive
PDCD2L (GeneID 84306)	1	-1.07	60.6	-0.8	inactive
PDCD2L (GeneID 84306)	2	-0.744	67.1	-0.288	inactive
PDCD2L (GeneID 84306)	3	1.64	115	0.812	inactive
GOPC (GeneID 57120)	1	0.464	91.1	0.0715	inactive
GOPC (GeneID 57120)	2	-0.375	74.4	-0.319	inactive
GOPC (GeneID 57120)	3	0.866	99.1	0.784	inactive
CD200 (GeneID 4345)	1	-2.01	41.9	-1.62	inactive
CD200 (GeneID 4345)	2	0.468	91.2	0.0402	inactive
CD200 (GeneID 4345)	3	0.275	87.4	0.474	inactive
ZDBF2 (GeneID 57683)	1	0.391	89.7	0.726	inactive
ZDBF2 (GeneID 57683)	2	0.0434	82.8	-0.0541	inactive
ZDBF2 (GeneID 57683)	3	0.715	96.1	-0.317	inactive
CLEC4G (GeneID 339390)	1	-0.0736	80.4	0.604	inactive
CLEC4G (GeneID 339390)	2	1.1	104	1.01	inactive
CLEC4G (GeneID 339390)	3	-0.869	64.6	-0.607	inactive
MAP2K4 (GeneID 6416)	1	1.83	118	0.616	inactive
MAP2K4 (GeneID 6416)	2	-0.374	74.4	-1.34	inactive
MAP2K4 (GeneID 6416)	3	-2.53	31.6	-1.26	inactive
RNPS1 (GeneID 10921)	1	-0.95	63	-0.155	inactive
RNPS1 (GeneID 10921)	2	-0.555	70.8	0.606	inactive
RNPS1 (GeneID 10921)	3	1.07	103	1.58	inactive
DRC8 (GeneID 84288)	1	1.72	116	1.46	inactive
DRC8 (GeneID 84288)	2	-0.684	68.3	-0.779	inactive
DRC8 (GeneID 84288)	3	-0.852	64.9	-1.41	inactive
HIVEP2 (GeneID 3097)	1	0.103	83.9	0.146	inactive
HIVEP2 (GeneID 3097)	2	0.0693	83.3	-0.85	inactive
HIVEP2 (GeneID 3097)	3	0.705	95.9	0.247	inactive
IER5L (GeneID 389792)	1	0.173	85.3	0.142	inactive
IER5L (GeneID 389792)	2	-0.439	73.2	-0.68	inactive
IER5L (GeneID 389792)	3	-1.74	47.3	-2.61	inactive
TBP (GeneID 6908)	1	1.25	107	0.958	inactive
TBP (GeneID 6908)	2	2.81	138	2.45	inactive
TBP (GeneID 6908)	3	1.93	120	0.893	inactive
PPP2R1B (GeneID 5519)	1	0.121	84.3	-0.297	inactive
PPP2R1B (GeneID 5519)	2	0.44	90.6	-0.282	inactive
PPP2R1B (GeneID 5519)	3	-1.31	55.8	-0.224	inactive
ATP1B2 (GeneID 482)	1	-2.28	36.6	-2.69	inactive
ATP1B2 (GeneID 482)	2	-0.0422	81	-0.451	inactive
ATP1B2 (GeneID 482)	3	0.96	101	1.14	inactive
B3GNT5 (GeneID 84002)	1	-1.78	46.5	-1.49	inactive
B3GNT5 (GeneID 84002)	2	1.08	103	0.883	inactive
B3GNT5 (GeneID 84002)	3	0.468	91.2	0.177	inactive
LOC100420746 (GeneID 100420746)	1	1.27	107	0.94	inactive
LOC100420746 (GeneID 100420746)	2	-0.915	63.7	-1.07	inactive
LOC100420746 (GeneID 100420746)	3	-0.0352	81.2	-1.04	inactive
PIGS (GeneID 94005)	1	-0.707	67.8	-0.472	inactive
PIGS (GeneID 94005)	2	1.04	102	1.65	inactive
PIGS (GeneID 94005)	3	-1.91	43.8	-1.88	inactive
